The whole screen tested about 220,000 compounds, of which about 2,400 (1.1%) were called active. The inconclusive results got no clear call from the source; some entries with a clear call stand among them for comparison. Calls follow the shape of the dose curve; as a rule, active = well fitted inhibition curve with a large enough effect; inconclusive = small, poorly fitted or top-dose-only effect, or effect the other way; inactive = no such curve, though single readings can be large or run the other way. Potencies beside an inconclusive call are fits to weak or partial responses and may not hold up.
experiment: qHTS Multiplex Assay to Identify Dual Action Probes in a Cell Model of Huntington: Aggregate Formation (GFP); settings: PC12 HttQ103-GFP aggregates, Acumen cytometry, 40 h; activity change, negative = inhibition: at 46.1 µM (top of the series) unless noted; also: nearly all actives have a fitted effect of over 60% in size
In short: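 Aggregate formation scored by laser-scanning cytometer (488 excitation, 500–530 emission) in lysed PC12 cells expressing Q103-GFP after 100 nM tebufenozide induction; library tested in dose series, with ATPLite reagent added in the multiplex.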
% is scaled to controls: 0 for no effect and ±100 for the full control effect; potency is read from the fitted curve at half-maximal effect.

SMILES | Potency | activity change, negative = inhibition
CCN1C/C(=C\c2cccc([N+](=O)[O-])c2)C(=O)/C(=C/c2cccc([N+](=O)[O-])c2)C1 | inconclusive: 31.6 µM [activator, single point] | –
C=CCn1c(C)cc(C(=O)CSc2nc3ccccc3o2)c1C | inconclusive: 11.2 µM [inhibitor, partial curve] | –
CSC(=NC#N)N1CCN(c2ccc([N+](=O)[O-])cc2)CC1 | – | inactive: 20.6% [at 9.22 µM]
CCCC(C)NC(=O)CSc1nnc2ccccn12 (configuration not stated) | – | inactive: -1.42%
CN(c1ccccc1)S(=O)(=O)c1cccc(NC(=O)CN2CCc3ccccc3C2)c1 | inconclusive: 35.5 µM [inhibitor, single point] | –
COC(=O)c1c(C)noc1-c1cc(C)on1 | inconclusive: 2.24 µM [inhibitor, partial curve] | –
COC(=O)Cc1[nH]nc2c1C(c1cccc(OC)c1OC)C(C#N)=C(N)O2 (configuration not stated) | inconclusive: 8.91 µM [activator, partial curve] | –
Cc1ccc(-c2ccc(=O)n(CCC(=O)NCCN3CCCCC3C)n2)cc1 (configuration not stated) | inconclusive: 3.98 µM [inhibitor, partial curve] | –
OC(COC(c1ccccc1)c1ccccc1)CN1CCc2ccccc2C1 (configuration not stated) | inconclusive: 7.94 µM [inhibitor, partial curve] | –
O=C(Oc1ccccc1/C=C\C(=O)c1cc2ccccc2o1)c1cccc(F)c1 | inconclusive: 35.5 µM [inhibitor, single point] | –
CCC(C)NCc1ccc(C(=O)OC)o1 (configuration not stated) | inconclusive: 5.62 µM [inhibitor, single point] | –
COc1ccc(CNC(=O)c2c(C)oc3c2C(=O)c2ccccc2C3=O)cc1 | inconclusive: 14.1 µM [inhibitor, partial curve, poor fit] | –
CC1CCN(CCC(=O)NN)CC1 | inconclusive: 35.5 µM [inhibitor, single point] | –
O=C(CCCN1C(=O)/C(=C/c2ccccc2Cl)SC1=S)NNC(=O)c1ccccc1Cl | inconclusive: 28.2 µM [inhibitor, partial curve] | –
CC1CCN(S(=O)(=O)c2ccc(C(=O)Nc3sccc3C(N)=O)cc2)CC1 | inconclusive: 10 µM [inhibitor, partial curve] | –
COc1ccc(-c2cc(=O)oc3cc4occ(C)c4cc23)cc1 | inconclusive: 11.2 µM [inhibitor, partial curve, poor fit] | –
Cn1c(=O)n(C)c2cc(/C=C3/SC(=O)N(CC(=O)N4CCOCC4)C3=O)ccc21 | inconclusive: 10 µM [activator, single point] | –
Cc1nn(C(C)(C)C)c(OC(=O)c2cccs2)c1S(=O)(=O)c1ccccc1 | active: 12.6 µM | –
COc1nc(N)nc(NC23CC4CC(CC(C4)C2)C3)n1 | inconclusive: 4.47 µM [inhibitor, single point] | –
CN(C)C(/C=C/Nc1ccc(C#N)cc1)=C(C#N)C#N | inconclusive: 35.5 µM [inhibitor, single point] | –
C=CCC(CC=C)(C(N)=O)c1ccccc1 | inconclusive: 1.26 µM [inhibitor, single point] | –
COCCN1C(=O)C(CC(=O)Nc2ccc(C(C)=O)cc2)SC1=Nc1ccccc1 (configuration not stated) | – | inactive: -4.48%
COc1ccccc1/C=C/C(=O)NC(=S)Nc1ccc(S(=O)(=O)N(C)c2ccccc2)cc1 | – | inactive: 14.3%

Structures shown so far that contain a thiophene ring, fused or not:
SMILES | Potency | activity change, negative = inhibition
CC1CCN(S(=O)(=O)c2ccc(C(=O)Nc3sccc3C(N)=O)cc2)CC1 | inconclusive: 10 µM [inhibitor, partial curve] | –
Cc1nn(C(C)(C)C)c(OC(=O)c2cccs2)c1S(=O)(=O)c1ccccc1 | active: 12.6 µM | –

(cont.)

SMILES | Potency | activity change, negative = inhibition
CCc1nc2ccccc2c(C(=O)OCC(=O)Nc2cccc(S(=O)(=O)N3CCOCC3)c2)c1C | inconclusive: 14.1 µM [inhibitor, single point] | –
COc1ccc(C2/C=C\CN(S(=O)(=O)c3ccc(C)cc3)CC(=O)N2Cc2ccc(F)cc2)cc1 (configuration not stated) | – | inactive: -9.58% [at 9.22 µM]
CCCc1ccc(C(C)NC(=O)c2cnccn2)cc1 (configuration not stated) | inconclusive: 35.5 µM [inhibitor, single point] | –
CC(NC(=O)Cn1ncc(Cl)c(Cl)c1=O)C12CC3CC(CC(C3)C1)C2 (configuration not stated) | inconclusive: 35.5 µM [inhibitor, single point] | –
Cc1cc(C)nc(-n2nc(C)cc2NC(=O)CNCc2ccccc2)n1 | – | inactive: 14%
COC(=O)CNC(c1ccccc1)c1cc(Br)ccc1NC(=O)CNC(=O)OCc1ccccc1 (configuration not stated) | inconclusive: 35.5 µM [inhibitor, single point] | –
Cc1cccc(N2CCN(C(c3ccccc3)c3nnnn3C(C)(C)C)CC2)c1C (configuration not stated) | inconclusive: 11.2 µM [inhibitor, partial curve] | –
CCN(CC)CCNC(=O)CSc1c2c(nc3cc(Cl)ccc13)CCCC2 | inconclusive: 22.4 µM [inhibitor, single point] | –
Cc1ccc(CN2CCSc3ccc(C(=O)N4CCN(c5ncccn5)CC4)cc32)cc1 | active: 15.8 µM | –
COc1ccc(NC(=S)NCc2ccco2)cc1 | – | inactive: -24.1%
COc1ccc2nc(Nc3nc4cc5c(cc4s3)OCO5)sc2c1 | inconclusive: 0.891 µM [activator, full curve, poor fit] | –
COc1ccccc1NS(=O)(=O)c1ccc(Cl)c(NC(=S)NC(=O)C2CCCC2)c1 | inconclusive: 11.2 µM [inhibitor, partial curve] | –
O=C(Nc1nnc(CSCc2ccccc2F)s1)c1cccc([N+](=O)[O-])c1 | inconclusive: 31.6 µM [inhibitor, single point] | –
Cn1c(C(=O)N(Cc2ccccc2)Cc2cccs2)cc2sccc21 | inconclusive: 35.5 µM [inhibitor, single point] | –
O=C(NCc1cccc(Cl)c1)c1cc(COc2ccc3ncccc3c2)on1 | – | inactive: -3.58% [at 9.22 µM]
O=[N+]([O-])c1ccc(Oc2ccc(F)cc2Br)c2ccncc12 | inconclusive: 12.6 µM [inhibitor, partial curve] | –
Cc1cc2nc(-c3ccc(SCC(=O)Nc4ccc5c(c4)OCCO5)nc3)[nH]c2cc1C | – | inactive: 15%
O=C(C1CCCN(S(=O)(=O)c2cccc3nsnc23)C1)N1CCc2ccccc21 (configuration not stated) | inconclusive: 14.1 µM [inhibitor, single point] | –
CCn1c(C)nc2cc(C(=O)N/N=C/c3ccc(OC)c(O)c3)ccc21 | inconclusive: 0.891 µM [inhibitor, single point] | –
CCOc1ccc(NC(=O)CSc2nnc(-c3ccccc3Cl)n2Cc2ccco2)cc1 | – | inactive: -18.9%
Cc1nnc(SCC2=C(C(=O)O)N3C(=O)C(NC(=O)C(C)n4nc(C(F)(F)F)cc4C)C3SC2)s1 (configuration not stated) | inconclusive: 11.2 µM [activator, partial curve] | –
CCN(CC)C1=NS(=O)(=O)c2cc([N+](=O)[O-])ccc21 | inconclusive: 22.4 µM [inhibitor, single point] | –
O=C(CN1C(=O)C2C3C=CC(C3)C2C1=O)Nc1nc(-c2ccccn2)cs1 (configuration not stated) | inconclusive: 11.2 µM [inhibitor, partial curve] | –

Molecules from the list above that have a tert-butyl group:
SMILES | Potency | activity change, negative = inhibition
Cc1nn(C(C)(C)C)c(OC(=O)c2cccs2)c1S(=O)(=O)c1ccccc1 | active: 12.6 µM | –
Cc1cccc(N2CCN(C(c3ccccc3)c3nnnn3C(C)(C)C)CC2)c1C (configuration not stated) | inconclusive: 11.2 µM [inhibitor, partial curve] | –

(list continues)

SMILES | Potency | activity change, negative = inhibition
O=C1C(Nc2ccc(O)cc2)=C/C(=N/S(=O)(=O)c2cccs2)c2ccccc21 | active: 2.51 µM | –
COC(=O)CN1C(=O)C(O)(CC(=O)c2ccc(C)cc2)c2ccccc21 (configuration not stated) | – | inactive: -10.6%
O=C(N/N=C/c1coc2ccccc2c1=O)c1ccccc1Br | inconclusive: 12.6 µM [inhibitor, single point] | –
Cc1noc(/C=C/N(C)C)c1S(=O)(=O)N(C)CC(=O)N1CCc2ccccc21 | – | inactive: 6.97%
CN1CCN(c2nc(N3CCN(c4ccccc4)CC3)ncc2F)CC1 | – | inactive: -1.62%
O=C(NC(=S)NNC(=O)c1cccs1)c1ccc(Br)o1 | inconclusive: 10 µM [inhibitor, partial curve] | –
CCc1ccc(NS(=O)(=O)c2ccc3[nH]cc(C(=O)NCC4CCCO4)c(=O)c3c2)cc1 (configuration not stated) | – | inactive: -25.2%
CC1=CC(C)(C)N(C(=O)CCl)c2ccccc21 | – | inactive: -1.2% [at 9.22 µM]
Cc1cc(-c2n[nH]c(=S)n2Cc2ccccc2)cs1 | inconclusive: 35.5 µM [activator, partial curve] | –
Cc1cccc(N(CC(=O)NC2CCCC2)C(=O)c2cc3cc4cccc(C)c4nc3s2)c1C | inconclusive: 35.5 µM [inhibitor, single point] | –
Clc1ccc(COc2ccccc2CNCc2cccnc2)cc1 | inconclusive: 35.5 µM [inhibitor, single point] | –
Cc1cccc(N2CCN(C3=NC(=O)C(=C4CCCCC4)S3)CC2)c1 | inconclusive: 11.2 µM [inhibitor, single point] | –
Cc1csc(C(C#N)C(=O)c2cc3ccccc3o2)n1 (configuration not stated) | inconclusive: 31.6 µM [inhibitor, single point] | –
NC(=O)c1ccc(NC(=O)COC(=O)c2cccc(Oc3ccccc3)c2)cc1 | – | inactive: 1.6%
O=C(/C=C/c1ccc([N+](=O)[O-])cc1)NCCc1ccc(F)cc1 | inconclusive: 15.8 µM [inhibitor, single point] | –
COc1ccc2c(c1)[nH]c1c(N3CCN(Cc4ccc5c(c4)OCO5)CC3)ncnc12 | active: 8.91 µM | –
Cc1cc(NC(=O)CCN2C(=O)C3C4C=CC(C4)C3C2=O)c2ccccc2n1 (configuration not stated) | inconclusive: 35.5 µM [inhibitor, single point] | –
CC(=O)OCCOc1nc(N(C)C)nc(N(C)C)n1 | inconclusive: 0.794 µM [inhibitor, single point] | –
COc1ccc(S(=O)(=O)N2CCOC2CNC(=O)C(=O)NCCc2c[nH]c3ccccc23)cc1C (configuration not stated) | inconclusive: 11.2 µM [inhibitor, partial curve] | –
Cc1onc(-c2ccccc2)c1C(=O)N/N=C/C=C/c1ccccc1 | – | inactive: 5.97% [at 9.22 µM]
Cc1c(C(=O)O)[nH]c2c1C(=O)CC(c1ccccc1)C2 (configuration not stated) | – | inactive: 0.183%
